Data taken from PubChem BioAssay AID651814 (National Center for Advancing Translational Sciences (NCATS), 2012).
The whole screen tested about 2,100 compounds, of which about 590 (28%) were called active. Inconclusive means that the source gave no clear call. Such entries were picked first, then a sample of the others. Calls come from the whole dose curve; as a rule, active = well fitted inhibition curve with a large enough effect; inconclusive = small, poorly fitted or top-dose-only effect; inactive = flat fitted curve, though single readings scatter. Where the call is inconclusive, the potency comes from a doubtful curve fit.

Sequences of proteins named here, by UniProt entry; tags and fusion partners are left off. A change or cut given only in a name is not applied to a line headed by its entry.
UniProt Q8IUX4: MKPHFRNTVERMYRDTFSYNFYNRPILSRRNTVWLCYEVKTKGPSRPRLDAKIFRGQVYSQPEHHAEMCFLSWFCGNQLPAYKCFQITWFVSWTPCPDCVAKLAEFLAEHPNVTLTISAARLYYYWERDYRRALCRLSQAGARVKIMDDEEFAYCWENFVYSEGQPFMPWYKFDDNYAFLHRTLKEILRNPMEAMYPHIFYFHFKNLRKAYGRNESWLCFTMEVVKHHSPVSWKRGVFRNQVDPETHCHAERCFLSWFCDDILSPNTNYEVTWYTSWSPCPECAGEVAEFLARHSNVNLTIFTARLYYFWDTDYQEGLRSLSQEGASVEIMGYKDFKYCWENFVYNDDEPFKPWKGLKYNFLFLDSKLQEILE

The molecules below were run against DNA dC->dU-editing enzyme APOBEC-3F (Homo sapiens) (UniProt Q8IUX4) (assay: qHTS for inhibitors of Vif-A3F interactions: Cherry picks). Conditions: HeLa A3F-eYFP + Vif (tagged APOBEC3F with the HIV-1 protein that degrades it), eYFP fluorescence, 24 h.
Outline: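 HeLa cells stably expressing A3F-eYFP plus Vif, cultured overnight, then exposed to compounds at several concentrations for 24 h at 37 deg C. Reduced Vif-driven degradation read as rising eYFP fluorescence (488 nm ex/500-530 nm em) by laser-scanning cytometry; MG132 as positive control.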
Note: nearly all actives have a fitted effect of over 70% in size.
Potency is the fitted concentration of half-maximal effect.
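Throughout, for max response: % of control where 0% means no effect; active compounds raise eYFP fluorescence by blocking Vif-driven A3F loss.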

| SMILES | max response | Potency |
| --- | --- | --- |
| CCc1ccc2c(c1)NC(=O)C2(C)Cc1ccccc1Cl (configuration not stated) | inactive: -19.4% |  |
| CC(CC(=O)Nc1ccc2c(c1)c(=O)n(C)n2-c1ccccc1)c1ccccc1 (configuration not stated) |  | active: 4.98 µM |
| Cn1cc(/C=C/c2ccnc3ccccc23)c2ccccc21 |  | active: 23.1 µM |
| CCN(CC)c1ccc2cc(C(N)=O)c(=N)oc2c1 |  | inconclusive: 20.6 µM [inhibitor, single point] |
| CC(=O)c1cc2c(cc1NS(=O)(=O)c1ccc(C)cc1)OCCO2 | inactive: -26.6% |  |
| Cc1ccc(C2=NN(S(=O)(=O)c3ccccc3)C(c3ccccc3O)C2)cc1 (configuration not stated) |  | inconclusive: 18.4 µM [inhibitor, single point] |
| O=C(CSc1n[nH]c(-c2ccccn2)n1)Nc1ccc(Cl)cc1 | inactive: 0.972% |  |
| O=C(NCc1ccccc1)C1Cc2c(-c3cccc(F)c3)ccnc2O1 (configuration not stated) |  | inconclusive: 1.4 µM [inhibitor, full curve] |
| COc1ccc(C(=O)c2cc([N+](=O)[O-])ccc2N2CCCC2)cc1 | inactive: -19.8% |  |
| Cc1c(=O)n(OCc2ccc(Cl)cc2)c2ccccc2[n+]1[O-] | inactive: -8.69% |  |
| CCN1C(=S)SC(=O)C1=C1C=C(C)N(Cc2ccco2)C(C)=C1 |  | active: 17.7 µM |
| Cc1ccc(-c2nc3sc(C#N)c(N)n3c(=O)c2C#N)cc1 |  | inconclusive: 29.1 µM [inhibitor, single point] |
| C=C(C(=O)c1ccccc1)C(NC(C)(C)C)c1ccccc1 (configuration not stated) |  | inconclusive: 15.8 µM [inhibitor, partial curve] |
| COc1cc(OC)c(OC)cc1/C=C1\CC(C)C/C(=C\c2cc(OC)c(OC)cc2OC)C1=O (configuration not stated) |  | inconclusive: 18.4 µM [inhibitor, single point] |
| CCS(=O)(=O)N1N=C(c2ccc(C)cc2)CC1c1cc2ccc(OC)cc2nc1Cl (configuration not stated) | inactive: -11.9% |  |
| CCOc1cc(/C=C(\C#N)c2nc(-c3cccs3)c(NC(C)=O)s2)ccc1O |  | inconclusive: 0.517 µM [inhibitor, single point] |
| Cc1cc(C)n(-c2nnc3n2N=C(c2c[nH]c4ccccc24)CS3)n1 |  | inconclusive: 4.44 µM [inhibitor, partial curve] |
| COC(=O)c1nnn(-c2nonc2N)c1CN1CCc2ccccc21 |  | inconclusive: 22.3 µM [inhibitor, single point] |
| CCn1cc2nc(SCC(=O)Nc3ccc(C)cc3C)n(Cc3ccc(C)cc3)c(=O)c2n1 |  | inconclusive: 6.51 µM [inhibitor, partial curve] |
| CN(C)c1ccc(/C=C2\Cc3ccccc3C2=O)cc1 |  | active: 5.17 µM |
| COc1cc2ccccc2cc1C(=O)N/N=C/c1cccs1 |  | inconclusive: 2.23 µM [inhibitor, full curve] |
| O=C(c1[nH]c(C(F)(F)F)nc1-c1ccccc1)N1CCN(c2ccccc2)CC1 |  | inconclusive: 1.25 µM [inhibitor, full curve] |
| COc1ccccc1Nc1nnc(SCC2CCCCO2)s1 (configuration not stated) |  | inconclusive: 14 µM [inhibitor, single point] |
| Cc1ccc(C)c(C2NC(=O)c3ccccc3N2)c1 (configuration not stated) |  | inconclusive: 2.5 µM [inhibitor, partial curve] |

An excerpt from above in order of molecular weight, ascending:

| SMILES | max response | Potency |
| --- | --- | --- |
| Cc1ccc(C)c(C2NC(=O)c3ccccc3N2)c1 (configuration not stated) |  | inconclusive: 2.5 µM [inhibitor, partial curve] |
| C=C(C(=O)c1ccccc1)C(NC(C)(C)C)c1ccccc1 (configuration not stated) |  | inconclusive: 15.8 µM [inhibitor, partial curve] |
| Cc1ccc(-c2nc3sc(C#N)c(N)n3c(=O)c2C#N)cc1 |  | inconclusive: 29.1 µM [inhibitor, single point] |
| CCN1C(=S)SC(=O)C1=C1C=C(C)N(Cc2ccco2)C(C)=C1 |  | active: 17.7 µM |
| CCS(=O)(=O)N1N=C(c2ccc(C)cc2)CC1c1cc2ccc(OC)cc2nc1Cl (configuration not stated) | inactive: -11.9% |  |

Next part

| SMILES | max response | Potency |
| --- | --- | --- |
| Cc1ccc(C(=O)O)cc1Nc1nc2ccccc2n2nnnc12 | inactive: -4.15% |  |
| O=C1C=CC(O)(c2cc(=O)c3c(O)cc(O)cc3o2)C=C1 |  | inconclusive: 4.44 µM [inhibitor, full curve, poor fit] |
| CC(=O)Nc1ccc(S(=O)(=O)N2CCSc3ccccc32)cc1 |  | inconclusive: 3.14 µM [inhibitor, full curve, poor fit] |
| O=C(N/N=C/c1c(O)n(-c2ccc(Cl)cn2)c(=O)c2ccccc12)c1ccncc1 | inactive: -9.07% |  |
| COc1ccccc1N1CCN(c2ncnc3c2oc2ccccc23)CC1 |  | inconclusive: 1.4 µM [inhibitor, partial curve] |
| CCOc1ccc(/C=N/NC(=O)c2cc3c(OC)cc(OC)c(OC)c3[nH]2)cc1 |  | inconclusive: 7.9 µM [inhibitor, partial curve] |
| CN(C)c1ccc(/C=C/c2ccnc3ccc(Br)cc23)cc1 |  | active: 3.66 µM |
| O=C1/C(=C\c2ccc(O)c(O)c2)SC(=S)N1Cc1ccccc1 | inactive: -22.4% |  |
| Cc1nnc(NC(=O)c2sc3nc(-c4cccs4)cc(C(F)(F)F)c3c2N)s1 |  | active: 7.31 µM |
| N#Cc1cccn1-c1nccc(-c2cccs2)n1 |  | active: 12.5 µM |
| CC(=O)Nc1ccc(-c2ccnc3c2CC(C(=O)NCc2cccc(Cl)c2)O3)cc1 (configuration not stated) |  | inconclusive: 3.14 µM [inhibitor, full curve] |
| O=C(O)CSc1c2ccccc2cc2ccccc12 | inactive: -4.37% |  |
| CC(=O)Nc1sc2c(c1-c1nc3ccccc3s1)CCN(C(C)C)C2 |  | inconclusive: 14.6 µM [inhibitor, single point] |
| CCCSc1ncc(Cl)c(C(=O)Nc2sc3c(c2C(N)=O)CCCC3)n1 |  | inconclusive: 20.6 µM [inhibitor, partial curve] |
| O=C(Cc1ccccc1)NCc1ccc(-n2cccc2)cc1 |  | inconclusive: 1.58 µM [inhibitor, full curve] |
| CCOC1=C/C(=C/c2c(N)n3nc(-c4ccccc4)sc3nc2=O)C=CC1=O | inactive: 3.18% |  |
| Cc1ccccc1/C=C\c1nc2ccccc2c(=O)[nH]1 |  | inconclusive: 17.7 µM [inhibitor, single point] |
| COc1ccc2nc(NC(=O)c3ccc([N+](=O)[O-])o3)sc2c1 |  | inconclusive: 17.7 µM [inhibitor, single point] |
| CCCN1C(=O)C(Cc2nc3ccccc3c(=O)n2CC)c2cc(Br)ccc21 (configuration not stated) | inactive: -0.982% |  |
| Cc1cccc(CN2C(=O)N/C(=C/c3ccc(C)s3)C2=O)c1 |  | active: 9.94 µM |
| Cc1ccc(Cn2nnc3c(=O)n(CC(=O)NCc4ccccc4)cnc32)cc1 |  | inconclusive: 8.86 µM [inhibitor, partial curve] |
| Cc1ccccc1NCC(=O)N=Nc1c(O)[nH]c2ccc([N+](=O)[O-])cc12 | inactive: -1.42% |  |
| O=C1CC(c2cc(Br)ccc2F)c2cc3c(cc2N1)CCC3 (configuration not stated) | inactive: -29.3% |  |
| CC(=O)c1cc(NC(=O)c2ccc(Cl)cc2)c(=O)oc1/C=C/N(C)C |  | active: 6.27 µM |

| SMILES | max response | Potency |
| --- | --- | --- |
| O=c1c2cc3ccccc3n2cnn1Cc1ccccc1F |  | inconclusive: 25 µM [inhibitor, single point] |
| Cc1ccc2nc(NC(=O)CN(C)S(=O)(=O)c3cccc4nsnc34)sc2c1 |  | inconclusive: 2.8 µM [inhibitor, full curve, poor fit] |
| Cc1cc(NC(=O)Nc2nnc(N(C)Cc3ccccc3)s2)ccc1Br | inactive: -0.38% |  |
| Cc1ccc(O)c(NC(=O)c2cc(-c3ccccc3O)no2)c1 |  | active: 18.4 µM |
| COc1cc(/C=C2\SC(=S)N(NC(=O)c3ccccc3O)C2=O)ccc1O | inactive: -22.7% |  |
| COc1cc(-c2nc3ccc(C)cn3c2NCc2ccccc2)ccc1SC1CCCCC1 | inactive: -8.35% |  |
| COc1cc(/C=C/C(C)=NNc2ccccc2)ccc1O | inactive: -28.1% |  |
| COC(=O)C1C2CC3c4[nH]c5cc(OC)ccc5c4CCN3CC2CC(OC(=O)CC(C)=O)C1OC (configuration not stated) |  | inconclusive: 18.4 µM [inhibitor, single point] |
| COc1cc(Cn2c3ccc(NC(=O)CCc4ccccc4)cc3c(=O)n2C)ccc1F |  | inconclusive: 3.53 µM [inhibitor, full curve] |
| COc1ccc2c(c1)c1nc3ccccc3nc1n2CC(=O)OC(C)C |  | inconclusive: 6.51 µM [inhibitor, full curve] |
| COc1ccc(C(=O)/C=C2/c3ccccc3CC(C)(C)N2C)cc1 |  | inconclusive: 6.27 µM [inhibitor, partial curve] |
| COc1ccc(OC)c(Nc2nc(-c3ccncc3)nc3ccccc23)c1 | inactive: -10.6% |  |
| N#Cc1ccc(/C=C\c2nccc3c2[nH]c2ccccc23)cc1 |  | inconclusive: 14 µM [inhibitor, single point] |
| CCS(=O)(=O)C1=NN2C(=N)/C(=C\c3ccc(SCc4ccco4)o3)C(=O)N=C2S1 | inactive: -0.189% |  |
| C=CCc1c(C)nc(-c2ccccc2)nc1Nc1ccccc1O |  | inconclusive: 23.1 µM [inhibitor, single point] |
| Nc1nn(-c2ccccc2)c(N)c1N=Nc1ccccc1 |  | inconclusive: 5.59 µM [inhibitor, partial curve] |
| O=C(NCc1ccco1)c1cccc2c1C(=O)c1ccc(N3CCC(Cc4ccccc4)CC3)cc1S2(=O)=O |  | active: 23.1 µM |
| CCCn1nnc(NC(=S)NC(=O)c2ccccc2OC)n1 | inactive: 0.308% |  |
| Cc1c(C(=O)OC2CCCCC2)[nH]c2c1C(=O)CC(c1ccccc1Cl)C2 (configuration not stated) |  | inconclusive: 1.84 µM [inhibitor, full curve] |
| Cc1cc(C(=O)N/N=C/c2ccc3c(c2)OCO3)c2ccccc2n1 |  | inconclusive: 3.53 µM [inhibitor, full curve] |
| Cc1c(CCCl)c(Cl)n2c(nc3ccccc32)c1C#N |  | inconclusive: 2.5 µM [inhibitor, full curve] |
| COc1ccc(N2CC(C(=O)N/N=C/c3ccc(C)cc3)CC2=O)cc1 (configuration not stated) |  | inconclusive: 3.14 µM [inhibitor, partial curve] |
| Cc1ccc([N+](=O)[O-])cc1-c1ccc(/C=C(\C#N)c2[nH]nc(N)c2C#N)o1 |  | inconclusive: 14 µM [inhibitor, single point] |
| COc1cc(C2Sc3ccccc3NC3=C2C(=O)OC3)cc(OC)c1OC (configuration not stated) |  | inconclusive: 25 µM [inhibitor, single point] |
